Test results reported in paper PMC5799190.
Results are given in words; binding and its absence hold for the method and conditions named. Some results given as binding are weak or reduced against the parent protein; the word gives no strength.

Target: T1, E. coli ArfA (E. coli) (UniProt P36675)
T1 sequence: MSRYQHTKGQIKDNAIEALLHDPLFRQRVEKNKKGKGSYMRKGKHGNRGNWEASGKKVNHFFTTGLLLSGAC
Experiment: cryo-EM structure; E. coli 70S ribosomes incubated with nonstop mRNA (6 uM), tRNAfMet, ArfA and RF2^m (12 uM each) in buffer A (20 mM Hepes-KOH pH 7.5, 15 mM magnesium acetate, 150 mM potassium acetate, 4 mM beta-mercaptoethanol, 2 mM spermidine, 0.05 mM spermine), 30 min at 37 °C; single-particle cryoEM; both purified

binding: binds
B1: E. coli RF2 with GGQ motif methylated (RF2^m) (protein, UniProt P07012 1-365)
chain: MFEINPVNNRIQDLTERSDVLRGYLDYDAKKERLEEVNAELEQPDVWNEPERAQALGKERSSLEAVVDTLDQMKQGLEDVSGLLELAVEADDEETFNEAVAELDALEEKLAQLEFRRMFSGEYDSADCYLDIQAGSGGTEAQDWASMLERMYLRWAESRGFKTEIIEESEGEVAGIKSVTIKISGDYAYGWLRTETGVHRLVRKSPFDSGGRRHTSFSSAFVYPEVDDDIDIEINPADLRIDVYRTSGAGGQHVNRTESAVRITHIPTGIVTQCQNDRSQHKNKDQAMKQMKAKLYELEMQKKNAEKQAMEDNKSDIGWGSQIRSYVLDDSRIKDLRTGVETRNTQAVLDGSLDQFIEASLKAGL
modifications: N5-methylglutamine at Q252 (the glutamine of the GGQ motif)
